For at least one entry, the source does not settle the construct or the ends of the probe. For some of these results: The comparison behind a weaker result is the experiment's own reference, which may not be listed here. For some of these results: At least one verdict rests on a figure or table, not on a statement of the authors. For some of these results: Tags and fusion partners may be left off the protein sequences shown.
Key:
Test in all cases: EMSA
[1] = tested on: PNPase S437-9A (active site mutant) + Hfq S437A,S438A,S439A; details: supershift significantly reduced, EMSA: 20 mM Tris pH 7.5, 100 mM NaCl, 1 mM MgCl2, 1 mM DTT, 30 C, 0.2 uM RNA, recombinant protein, probe letters rebuilt from the primers and the genome
PNPase + Hfq = details: ternary complex supershift; EMSA: 20 mM Tris pH 7.5, 100 mM NaCl, 1 mM MgCl2, 1 mM DTT, 30 C, 0.2 uM RNA; recombinant protein; probe letters rebuilt from the primers and the genome; part of a longer molecule
Hfq = Hfq (UniProt P0A6X3); details: 0.2 uM Hfq; EMSA: 20 mM Tris pH 7.5, 100 mM NaCl, 1 mM MgCl2, 1 mM DTT, 30 C, 0.2 uM RNA; recombinant protein; probe letters rebuilt from the primers and the genome; part of a longer molecule
[2] = target: PNPase S437-9A (active site mutant) S437A,S438A,S439A (UniProt P05055); details: EMSA: 20 mM Tris pH 7.5, 100 mM NaCl, 1 mM MgCl2, 1 mM DTT, 30 C, 0.2 uM RNA; recombinant protein; probe letters rebuilt from the primers and the genome; part of a longer molecule
PNPase delta-S1 = PNPase delta-S1 (UniProt P05055); details: EMSA: 20 mM Tris pH 7.5, 100 mM NaCl, 1 mM MgCl2, 1 mM DTT, 30 C, 0.2 uM RNA; recombinant protein; probe letters rebuilt from the primers and the genome; part of a longer molecule
PNPase = target: T1, PNPase (UniProt P05055); details: EMSA: 20 mM Tris pH 7.5, 100 mM NaCl, 1 mM MgCl2, 1 mM DTT, 30 C, 0.2 uM RNA, recombinant protein, probe letters rebuilt from the primers and the genome
T1 sequence (looked up, limits assumed): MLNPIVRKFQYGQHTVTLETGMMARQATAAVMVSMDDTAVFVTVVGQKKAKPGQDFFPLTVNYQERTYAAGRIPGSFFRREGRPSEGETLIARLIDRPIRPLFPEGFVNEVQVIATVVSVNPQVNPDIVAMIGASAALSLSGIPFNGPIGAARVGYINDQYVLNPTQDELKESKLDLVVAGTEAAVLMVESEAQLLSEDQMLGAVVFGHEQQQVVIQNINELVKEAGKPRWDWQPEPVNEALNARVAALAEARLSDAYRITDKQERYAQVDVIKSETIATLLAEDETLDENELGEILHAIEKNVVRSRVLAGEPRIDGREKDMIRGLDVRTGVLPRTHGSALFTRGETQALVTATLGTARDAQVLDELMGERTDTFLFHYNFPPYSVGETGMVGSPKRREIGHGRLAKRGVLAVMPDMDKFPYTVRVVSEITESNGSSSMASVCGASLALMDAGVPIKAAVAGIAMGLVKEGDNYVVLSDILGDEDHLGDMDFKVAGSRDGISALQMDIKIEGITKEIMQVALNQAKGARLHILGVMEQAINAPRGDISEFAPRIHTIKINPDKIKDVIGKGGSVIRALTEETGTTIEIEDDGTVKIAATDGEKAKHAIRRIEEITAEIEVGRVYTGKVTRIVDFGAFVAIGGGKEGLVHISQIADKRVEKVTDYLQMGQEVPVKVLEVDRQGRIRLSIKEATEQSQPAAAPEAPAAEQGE

Chains of the proteins cited; added tags and fusions are not shown. Lines headed by an entry give the natural chain unless they say otherwise; changes in a name come on top.
UniProt P0A6X3: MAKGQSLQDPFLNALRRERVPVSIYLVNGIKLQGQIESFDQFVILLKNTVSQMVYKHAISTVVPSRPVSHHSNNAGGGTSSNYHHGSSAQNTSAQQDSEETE

[3] = 2 mM sodium phosphate, 10 mM sodium tungstate, 30 nM PNPase

GCGAUCAGGAAGACCCUCGCGGAGAACCUGAAAGCACGACAUUGCUCACAUUGCUUCCAGUAUUACUUAGCCAGCCGGGUGCUGGCUUUUUUUUU [RyhB (9U)]
binding result [1]: binds more weakly

ACUUCCUGAGCCGGAACGAAAAGUUUUAUCGGAAUGCGUGUUCUGGUGAACUUUUGGCUUACGGUUGUGAUGUUGUGUUGUUGUGUUUGCAAUUGGUCUGCGAUUCAGACCAUGGUAGCAAAGCUACCUUUUUUCACUUCCUGUACAUUUACCCUGUCUGUCCAUAGUGAUUAAUGUAGCACCGCCUAAUUGCGGUGCUUUUUUUU [GcvB]
binding result ([1]; part of a longer molecule): binds more weakly | binding result (PNPase + Hfq): binds | binding result (Hfq): binds | binding result [2]: binds more weakly | binding result (PNPase delta-S1): binds more weakly | binding result (PNPase; part of a longer molecule): binds

GCGAUCAGGAAGACCCUCGCGGAGAACCUGAAAGCACGACAUUGCUCACAUUGCUUCCAGUAUUACUUAGCCAGCCGGGUGCUGGCUUUU [RyhB (4U)]
binding result (PNPase; [3]): binds

GCUGAAAAACAUAACCCAUAAAAUGCUAGCUGUACCAGGAACCACCUCCUUAGCCUGUGUAAUCUCCCUUACACGGGCUUAUUUUUU [CyaR]
binding result [1]: binds more weakly | binding result (PNPase; [3]): binds

Reference: publication PMC4748814
